According to PubChem BioAssay AID330 (DTP/NCI, 2004):
The list shows only some results of the screen, not a fair sample: it gathers tests that were run many times, whatever their T/C, doses with no T/C, and many T/C values between a quarter and a half above the control. Further doses and runs are listed elsewhere. T/C: endpoint of the treated group in % of that of the vehicle group. Some doses have a count of surviving animals in place of a T/C: the source files T/C as zero there, which appears to mark a toxic dose or a test without result, not a measured value. Some survivor counts are full or nearly so, which does not show that the dose was tolerated: the source hardly ever lists a survival T/C far under the control, and the zero likely stands for such cases as well. Survivors were counted at the toxicity check, usually on the fifth day, unless a day is given; later deaths do not show. Schedule codes are those of the source, taken here to give the interval after Q, in days (D) or hours (H), and the number of doses after X. Some entries were tested several times; the values are given in rising order. Some molecules as drawn cover several salts, stereoisomers or complexes of the source; a dose is that of the sample tested. For survival time, the PubChem record calls one and a half times the control and up active, and a quarter to a half above the control has no call in these data; cut-offs in other NCI protocols can differ. Some T/C values carry the count of animals alive at the toxicity check (mostly the fifth day); without a count, all were alive then.

System: P388 leukemia ip, CD2F1 mice, survival T/C
Experiment: NCI In Vivo Anticancer Drug Screen. Data for tumor model P388 Leukemia (intraperitoneal) in CD2F1 (CDF1) mice
Settings: T/C endpoint: median survival time, higher T/C = longer survival
[1] = dose: 200.0 mg/kg/injection, schedule: Q01DX005 (ip), vehicle: saline
[2] = dose: 200.0 mg/kg/injection, schedule: Q01DX005 (ip), vehicle: Klucel (hydroxypropylcellulose) (HPC)
[3] = dose: 120.0 mg/kg/injection, schedule: Q01DX005 (ip), vehicle: saline with Tween-80
[4] = dose: 100.0 mg/kg/injection, schedule: Q01DX009 (ip), vehicle: saline
[5] = dose: 200.0 mg/kg/injection, schedule: Q01DX009 (ip), vehicle: saline
[6] = dose: 50.0 mg/kg/injection, schedule: Q01DX009 (ip), vehicle: saline with Tween-80
[7] = dose: 240.0 mg/kg/injection, schedule: Q01DX005 (ip), vehicle: saline with Tween-80

In the case of `COc1ccc(O)c2c1C(=O)C=CC2=O`, the survivor count (dose: 1.6 mg/kg/injection, schedule: Q01DX001 (ip), vehicle: saline with Tween-80) is reported as 4 of 6, the survivor count (dose: 6.25 mg/kg/injection, schedule: Q01DX001 (ip), vehicle: saline with Tween-80) is reported as 0 of 5 and the survivor count (dose: 12.5 mg/kg/injection, schedule: Q01DX001 (ip), vehicle: saline with Tween-80) is reported as 0 of 5. The survivor count (dose: 25.0 mg/kg/injection, schedule: Q01DX001 (ip), vehicle: saline with Tween-80) was 0 of 5, the survivor count (dose: 50.0 mg/kg/injection, schedule: Q01DX001 (ip), vehicle: saline with Tween-80) was 0 of 5 and the survivor count (dose: 100.0 mg/kg/injection, schedule: Q01DX001 (ip), vehicle: saline with Tween-80) was 0 of 6. For the same compound, the survivor count (dose: 200.0 mg/kg/injection, schedule: Q01DX001 (ip), vehicle: saline with Tween-80) was 0 of 6 and the survivor count (dose: 400.0 mg/kg/injection, schedule: Q01DX001 (ip), vehicle: saline with Tween-80) was 0 of 6.

In the case of `CCCCCCNC(C)C`, the survivor count [1] is reported as 0 of 6.

`CC[C@@H]1CN2CCc3c([nH]c4ccccc34)[C@@H]2C[C@@H]1/C(=C\OC)C(=O)OC` was tested, and the survivor count [1] was 0 of 6 and 3 of 6.

With `CC1=CC(C)(C)Nc2ccc(CSc3ccccc3)cc21` the T/C (dose: 100.0 mg/kg/injection, schedule: Q01DX009 (ip), vehicle: DMSO) was 126 % of control and the T/C (dose: 200.0 mg/kg/injection, schedule: Q01DX009 (ip), vehicle: DMSO) was 127 % of control [5 of 6 alive].

For `O=C1CCOCCCOCCC(=O)OCCCOC(=O)CCOCCCOCCC(=O)OCCCO1`, the survivor count [2] was 3 of 6.

With `CC1(C=O)CCCC2(C)[C@@H]1CCC13CC(CC[C@H]12)C(C(=O)O)C3` (stereo partly drawn) the survivor count (dose: 1.63 mg/kg/injection, schedule: Q01DX005 (ip), vehicle: Klucel (hydroxypropylcellulose) (HPC)) was 6 of 6.

In the case of `Cn1c(=O)c2[nH]c(C3COCCO3)nc2n(C)c1=O` (stereo not drawn), the survivor count [3] is reported as 6 of 6.

With `CN(C)CCCN=c1c2ccccc2n(O)c2cccc([N+](=O)[O-])c12` the T/C (dose: 3.12 mg/kg/injection, schedule: Q01DX009 (ip), vehicle: saline with Tween-80) was 132 % of control, the T/C (dose: 6.25 mg/kg/injection, schedule: Q01DX009 (ip), vehicle: saline with Tween-80) was 140 % of control and the T/C (dose: 6.25 mg/kg/injection, schedule: Q01DX009 (ip), vehicle: saline) was 131 % of control. The survivor count (dose: 12.5 mg/kg/injection, schedule: Q01DX009 (ip), vehicle: saline) was 6 of 6, the survivor count (dose: 50.0 mg/kg/injection, schedule: Q01DX009 (ip), vehicle: saline) was 0 of 6 and the survivor count [4] was 0 of 6. For the same compound, the survivor count [5] was 0 of 6.

`CCN(CC)CCNc1cc2ccccc2c2sc3ccccc3c(=O)c12` was tested, and the survivor count (dose: 100.0 mg/kg/injection, schedule: Q01DX005 (ip), vehicle: distilled water + Tween-80) was 3 of 6 and the survivor count (dose: 200.0 mg/kg/injection, schedule: Q01DX005 (ip), vehicle: distilled water + Tween-80) was 0 of 6.

With `O=[N+]([O-])c1ccccc1N/N=C\c1c(Cl)[nH]c2ccccc12` the survivor count [2] was 6 of 6.

With `CONC(=O)N/N=C/c1c(CO)cnc(C)c1O` the survivor count (dose: 50.0 mg/kg/injection, schedule: Q01DX005 (ip), vehicle: Klucel (hydroxypropylcellulose) (HPC)) was 0 of 6, the survivor count (dose: 100.0 mg/kg/injection, schedule: Q01DX005 (ip), vehicle: Klucel (hydroxypropylcellulose) (HPC)) was 0 of 6 and the survivor count [2] was 0 of 6.

With `CC1(C)OC(=O)NC1c1ccccc1` (stereo not drawn) the survivor count [6] was 2 of 6, the survivor count (dose: 100.0 mg/kg/injection, schedule: Q01DX009 (ip), vehicle: saline with Tween-80) was 0 of 6 and the survivor count (dose: 200.0 mg/kg/injection, schedule: Q01DX009 (ip), vehicle: saline with Tween-80) was 0 of 6.

For `CN1CCC(/C=C/c2ccccc2)CN1` (stereo not drawn) (tested in a mixture with another compound), the survivor count [5] was 0 of 6.

With `C[N+](C)(C)/C=C/c1ccc([N+](=O)[O-])o1` the survivor count (dose: 200.0 mg/kg/injection, schedule: Q01DX009 (ip), vehicle: suspension in saline) was 1 of 6.

In the case of `Oc1ccccc1O`, the survivor count [4] is reported as 2 of 6, the survivor count [5] is reported as 0 of 6 and the survivor count (dose: 400.0 mg/kg/injection, schedule: Q01DX009 (ip), vehicle: saline) is reported as 0 of 6. The survivor count (dose: 600.0 mg/kg/injection, schedule: Q01DX009 (ip), vehicle: saline) was 0 of 6.

In the case of `[Cl][Cu][Cl]`, the survivor count (dose: 12.5 mg/kg/injection, schedule: Q04DX003 (ip), vehicle: saline) is reported as 3 of 6.

With `CCOC(=O)c1c[nH]n2ccnc12` the survivor count (dose: 400.0 mg/kg/injection, schedule: Q04DX002 (ip), vehicle: saline with Tween-80) was 0 of 6.

In the case of `Cc1cc(=NCCCN(C)C)c2ccc3c(ccc4c(=NCCCN(C)C)cc(C)n(O)c43)c2n1O`, the T/C (dose: 25.0 mg/kg/injection, schedule: Q01DX009 (ip), vehicle: water) is reported as 132 % of control, the survivor count (dose: 50.0 mg/kg/injection, schedule: Q01DX009 (ip), vehicle: water) is reported as 2 of 5, 3 of 5, 5 of 5 and the survivor count (dose: 100.0 mg/kg/injection, schedule: Q01DX009 (ip), vehicle: distilled water + alcohol) is reported as 0 of 5. For the same compound, the survivor count (dose: 100.0 mg/kg/injection, schedule: Q01DX009 (ip), vehicle: water) was 0 of 5.

For `CC(/C=C/c1ccc(Cl)c(Cl)c1)=N\NC(N)=S`, the survivor count [3] was 0 of 6 and the survivor count [7] was 0 of 6.

With `CCCCCC(=N\N=C(N)N)/C(C)=N/N=C(N)N` the survivor count (dose: 100.0 mg/kg/injection, schedule: Q01DX005 (ip), vehicle: saline) was 0 of 6 and the survivor count [1] was 0 of 6.

`COc1ccc2sc3c(C)ccc(NCCCC4CCCN5CCCCC45)c3c(=O)c2c1` (stereo not drawn) was tested, and the survivor count (dose: 50.0 mg/kg/injection, schedule: Q01DX005 (ip), vehicle: saline with Tween-80) was 6 of 6, the survivor count (dose: 100.0 mg/kg/injection, schedule: Q01DX005 (ip), vehicle: saline with Tween-80) was 6 of 6 and the survivor count (dose: 200.0 mg/kg/injection, schedule: Q01DX005 (ip), vehicle: saline with Tween-80) was 2 of 6.

`C/C(=N\N=c1/cc(Cl)n(C)c(=O)n1C)c1ccc(Cl)cc1` was tested, and the survivor count (dose: 200.0 mg/kg/injection, schedule: Q01DX009 (ip), vehicle: Klucel (hydroxypropylcellulose) (HPC)) was 6 of 6.

In the case of `CCOC(=O)C(=O)C1Cc2c(C)cc3cnc(OCC)cc3c2C1=O` (stereo not drawn), the survivor count (dose: 50.0 mg/kg/injection, schedule: Q01DX009 (ip), vehicle: distilled water + Tween-80) is reported as 6 of 6.

In the case of `COc1cc(/C=C/[N+](=O)[O-])c(OC)cc1Br`, the T/C (dose: 12.5 mg/kg/injection, schedule: Q01DX009 (ip), vehicle: saline with Tween-80) is reported as 130 % of control and the survivor count [6] is reported as 4 of 6.

With `CN(C)c1c(Cl)c(=O)oc2c1ccc1nc(-c3ccccc3)ncc12` the survivor count [7] was 6 of 6.

With `COc1ccc(/C=C\C(=O)c2ccc(C(=O)/C=C/c3ccc(OC)cc3OC)cc2)c(OC)c1` the survivor count (dose: 100.0 mg/kg/injection, schedule: Q04DX003 (ip), vehicle: saline with Tween-80) was 6 of 6, the survivor count (dose: 200.0 mg/kg/injection, schedule: Q04DX003 (ip), vehicle: saline with Tween-80) was 6 of 6 and the survivor count (dose: 400.0 mg/kg/injection, schedule: Q04DX003 (ip), vehicle: saline with Tween-80) was 6 of 6.

`COc1cc2cc[n+](C)c(Cc3ccc(Oc4cc(Cc5c6cc(OC)c(OC)cc6cc[n+]5C)ccc4OC)cc3)c2cc1OC` was tested, and the survivor count (dose: 10.0 mg/kg/injection, schedule: Q01DX009 (ip), vehicle: saline) was 1 of 6, the survivor count (dose: 20.0 mg/kg/injection, schedule: Q01DX009 (ip), vehicle: saline) was 0 of 6 and the survivor count (dose: 40.0 mg/kg/injection, schedule: Q01DX009 (ip), vehicle: saline) was 0 of 6. For the same compound, the survivor count (dose: 80.0 mg/kg/injection, schedule: Q01DX009 (ip), vehicle: saline) was 0 of 6.

In the case of `CCN(CC)c1ccc2nc3ccc(=[N+](CC)CC)cc-3oc2c1`, the survivor count (dose: 30.0 mg/kg/injection, schedule: Q01DX005 (ip), vehicle: saline) is reported as 4 of 6, the survivor count (dose: 60.0 mg/kg/injection, schedule: Q01DX005 (ip), vehicle: saline) is reported as 0 of 6 and the survivor count (dose: 240.0 mg/kg/injection, schedule: Q01DX005 (ip), vehicle: saline) is reported as 0 of 6.

With `Cc1ccc2ccccc2c1C(=N)c1cc2ccccc2c2ccccc12` the survivor count [2] was 5 of 5.

In the case of `CN1N=Nc2ccccc2C1O` (stereo not drawn), the survivor count [2] is reported as 0 of 6.

For `Nc1ccc2cc3c(nc2n1)[nH]c1ccccc13`, the survivor count [6] was 4 of 5.
